In publication PMC10531095, “Photonics of Some Monomethine Cyanine Dyes in Solutions and in Complexes with Biomolecules” (International Journal of Molecular Sciences, 2023):

Legend:
dsDNA [1] = experiment: Flash photolysis: triplet state of MCD in the presence of dsDNA; design: species or system chick; conditions: for ΦST, quantum yield of intersystem crossing to the triplet state: optical actinometry
Excerpt: Upon direct flash photoexcitation of deoxygenated solutions of MCD 1–4, signals corresponding to triplet–triplet (T–T) absorption were not observed due to the low efficiency of intersystem crossing to the triplet (T) state, in comparison with competing processes of nonradiative deactivation of excited states of dye molecules, which is common for MCD [41]. Complexation with dsDNA hinders these competing processes, which leads to an increase in the quantum yield of the T state of MCD. In the presence of dsDNA, under direct photoexcitation, the signals of T states of MCD 1–3 were detected, and their different T–T absorption spectra were measured (Figure 10).
Quantum yields of intersystem crossing to the triplet state (ΦST) of MCD 1–3 in the presence of dsDNA were estimated by flash photolysis using optical actinometry (see Materials and Methods). The obtained values of ΦST for MCD 1–3 were 2.6 ± 0.4%, 5.7 ± 0.8%, and 10.7 ± 1.5%, respectively.
The spectral–kinetic characteristics of the T state of MCD were studied by flash photolysis. The experiment was carried out on a setup with excitation by a xenon lamp (lamp flash energy ~50 J, duration τ1/2 = 10 μs). When registering T states, the solutions were deoxygenated using a vacuum setup. The manometric unit was used to determine the air pressure in a series of experiments on T state quenching by dissolved oxygen. The T state of MCD 4 in PBS solution in the presence of dsDNA was obtained by energy transfer from the triplet level of sodium naphthalene-2-sulfonate (ET~21,000 cm^−1 [83]). The quantum yields of T states (ΦT) of the dyes in the presence of dsDNA were estimated actinometrically. Dyes with known ΦT were used as actinometers: the xanthene dye Acid Red 87 (ΦT = 0.8 (aq); [84]) and the cyanine dye 3,3′-diethyl-9-methoxythiacarbocyanine iodide (ΦT = 0.16–0.20 in n-propanol; [85]).

ssDNA = experiment: Spectral fluorescent titration of the dyes with ssDNA in PBS; format: binding, chick; conditions: for εf/εb, relative change in molar extinction coefficient on complexation: PBS buffer
Excerpt: (§1) Complexation of MCD 1–4 with DNA (double-stranded and single-stranded) and with human serum albumin (HSA) was studied by spectral fluorescent methods in a wide range of biopolymer concentrations (cdsDNA = 0–1.5 × 10^−4 mol L^−1; cssDNA = 0–1.4 × 10^−4 mol L^−1; cHSA = 0–1.4 × 10^−4 mol L^−1 in PBS buffer). The absorption, fluorescence, and fluorescence excitation spectra of MCD 1 and 3 in the presence of dsDNA are shown in Figure 3 and Figure 4, respectively.
(§2) The complication of chemical equilibrium, and the variety of interactions between MCD and biopolymer (dye aggregation/deaggregation, the possibility of forming complexes of several types with DNA/HSA) makes it problematic to determine the exact values of the complexation constants of the dyes with DNA. The values of the effective equilibrium constants of the complexation reaction of MCD with biopolymers (Keff, L mol^−1, see Table 7) were estimated from spectral fluorescent data. In this case, we had to assume a simple equilibrium MCD (monomer, free) ⇄ MCD (monomer, bound). For these purposes, we used the Benesi–Hildebrand [59], Hill, and Scatchard formalisms (See Supplementary Materials, Equations (S9)–(S13)). For dsDNA, fitting according to the modified Scatchard equation was carried out assuming one dye molecule per one DNA turn (K1Sc at nSc = const = 10 b.p.), as well as varying both the constant (K2Sc) and the stoichiometric coefficient (nSc). In the case of ssDNA, nSc is given per one base; for HSA, nSc = 1.
Single-stranded form of DNA (single-stranded DNA; ssDNA) was obtained according to the method described in [74]. The concentrations of DNA and the dyes were controlled spectrophotometrically. Molar extinction coefficient of dsDNA (ε, L⋅mol^−1⋅cm^−1) was taken to be 13,200 L mol^−1 cm^−1 (per base pair); for ssDNA, ε = 9045 L mol^−1 cm^−1 (per one base) was used. For MCD 1 and 2 in an aqueous buffer solution, we used extinction coefficients ε = 40,000 and 68,000 L mol^−1 cm^−1, respectively, which were taken from. For MCD 3 and 4, the molar extinction coefficients in ethanol solution were 69,200 and 49,000 L mol^−1 cm^−1 (taken from). […] Spectral fluorescent characteristics of MCD in complexes with biomacromolecules were studied by titration of dye solutions (see Supplementary Materials). […]
Absorption spectra were recorded on an SF-2000 spectrophotometer (Experimental-Construction Company “Spectrum”, St. Petersburg, Russia); fluorescence and fluorescence excitation spectra were recorded on a Fluorat-02-Panorama spectrofluorimeter (Group of Companies “Lumex”, St. Petersburg, Russia). The fluorescence and fluorescence excitation spectra were corrected for the spectral characteristics of the instrument (excitation channel signal) and sample transmission. Changes in the intrinsic fluorescence of HSA upon binding of MCD (in the presence of the dyes) were recorded in the synchronous fluorescence scanning (SFS) mode. […] Synchronous scanning spectra were obtained at Δλ = 15 nm (fluorescence of tyrosine residues in the HSA molecule) and Δλ = 60 nm (fluorescence of tryptophan). The spectra were measured in 1 cm quartz semi-micro cells (Bio-Rad, Hercules, CA, USA).
The equilibrium constants of MCD complexation with biomolecules (Ka, L mol^−1) were obtained from fluorescence spectra using the Benesi–Hildebrand [59], Hill, and Scatchard equations [61] […]

dsDNA [2] = experiment: Spectral fluorescent titration of the dyes with dsDNA in PBS; format: binding, chick; conditions: for εf/εb, relative change in molar extinction coefficient on complexation: PBS buffer
Excerpt: as §1, §2
Single-stranded form of DNA (single-stranded DNA; ssDNA) was obtained according to the method described in [74]. The concentrations of DNA and the dyes were controlled spectrophotometrically. Molar extinction coefficient of dsDNA (ε, L⋅mol^−1⋅cm^−1) was taken to be 13,200 L mol^−1 cm^−1 (per base pair); for ssDNA, ε = 9045 L mol^−1 cm^−1 (per one base) was used. For MCD 1 and 2 in an aqueous buffer solution, we used extinction coefficients ε = 40,000 and 68,000 L mol^−1 cm^−1, respectively, which were taken from. For MCD 3 and 4, the molar extinction coefficients in ethanol solution were 69,200 and 49,000 L mol^−1 cm^−1 (taken from). […] Spectral fluorescent characteristics of MCD in complexes with biomacromolecules were studied by titration of dye solutions (see Supplementary Materials). The thermal dissociation (“melting”) of dsDNA in the presence of MCD was studied spectrophotometrically (λabs = 260 nm), the sample was heated (t° = 30–95 °C) using Peltier cells, and the temperature was controlled using a thermocouple. Melting points tm, corresponding to 50% hyperchromia of DNA samples were obtained.
Absorption spectra were recorded on an SF-2000 spectrophotometer (Experimental-Construction Company “Spectrum”, St. Petersburg, Russia); fluorescence and fluorescence excitation spectra were recorded on a Fluorat-02-Panorama spectrofluorimeter (Group of Companies “Lumex”, St. Petersburg, Russia). The fluorescence and fluorescence excitation spectra were corrected for the spectral characteristics of the instrument (excitation channel signal) and sample transmission. Changes in the intrinsic fluorescence of HSA upon binding of MCD (in the presence of the dyes) were recorded in the synchronous fluorescence scanning (SFS) mode. In SFS mode, when registering spectra, a fixed difference Δλ= λfl − λex is maintained for the channels of excitation and registration. Synchronous scanning spectra were obtained at Δλ = 15 nm (fluorescence of tyrosine residues in the HSA molecule) and Δλ = 60 nm (fluorescence of tryptophan). The spectra were measured in 1 cm quartz semi-micro cells (Bio-Rad, Hercules, CA, USA).
The equilibrium constants of MCD complexation with biomolecules (Ka, L mol^−1) were obtained from fluorescence spectra using the Benesi–Hildebrand [59], Hill, and Scatchard equations [61] (see Supplementary Materials, Equations (S9)–(S13)). […]

SMILES	ΦST, quantum yield of intersystem crossing to the triplet state (dsDNA [1])	LR, linear portion of fluorescence intensity vs. concentration plot (ssDNA)	εf/εb, relative change in molar extinction coefficient on complexation (ssDNA)	LR, linear portion of fluorescence intensity vs. concentration plot (dsDNA [2])	εf/εb, relative change in molar extinction coefficient on complexation (dsDNA [2])	signal of the T state upon direct photoexcitation (dsDNA [1])
CC[N+](CC)(CC)CCC[n+]1ccc(/C=C2\Sc3ccccc3N2C)c2ccc(O)cc21 [MCD 1]	2.6 ± 0.4%	0 to 3.5 µmol/L	1.73	0 to 3 µmol/L	1.05	
CCN1/C(=C/c2sc3ccccc3[n+]2CC)Sc2ccccc21 [MCD 3]	10.7 ± 1.5%	0 to 10 µmol/L	2.88	0 to 25 µmol/L	3.90	
CCN1/C(=C/c2ccc3ccccc3[n+]2CC)C=Cc2ccccc21 [MCD 4]		1–140 ^2 µmol L^−1		1.5–13 ^2 µmol L^−1	1.83	not detected
